Test results from article PMC4265741.
No constants are given. Whether binding was seen depends on the method and setting. For some of these results: In cells and extracts the contact can be indirect. Some entries that bind do so weakly or less than the wild type.

By UniProt entry, the sequences of proteins in these tests, tags left out.
UniProt Q08509: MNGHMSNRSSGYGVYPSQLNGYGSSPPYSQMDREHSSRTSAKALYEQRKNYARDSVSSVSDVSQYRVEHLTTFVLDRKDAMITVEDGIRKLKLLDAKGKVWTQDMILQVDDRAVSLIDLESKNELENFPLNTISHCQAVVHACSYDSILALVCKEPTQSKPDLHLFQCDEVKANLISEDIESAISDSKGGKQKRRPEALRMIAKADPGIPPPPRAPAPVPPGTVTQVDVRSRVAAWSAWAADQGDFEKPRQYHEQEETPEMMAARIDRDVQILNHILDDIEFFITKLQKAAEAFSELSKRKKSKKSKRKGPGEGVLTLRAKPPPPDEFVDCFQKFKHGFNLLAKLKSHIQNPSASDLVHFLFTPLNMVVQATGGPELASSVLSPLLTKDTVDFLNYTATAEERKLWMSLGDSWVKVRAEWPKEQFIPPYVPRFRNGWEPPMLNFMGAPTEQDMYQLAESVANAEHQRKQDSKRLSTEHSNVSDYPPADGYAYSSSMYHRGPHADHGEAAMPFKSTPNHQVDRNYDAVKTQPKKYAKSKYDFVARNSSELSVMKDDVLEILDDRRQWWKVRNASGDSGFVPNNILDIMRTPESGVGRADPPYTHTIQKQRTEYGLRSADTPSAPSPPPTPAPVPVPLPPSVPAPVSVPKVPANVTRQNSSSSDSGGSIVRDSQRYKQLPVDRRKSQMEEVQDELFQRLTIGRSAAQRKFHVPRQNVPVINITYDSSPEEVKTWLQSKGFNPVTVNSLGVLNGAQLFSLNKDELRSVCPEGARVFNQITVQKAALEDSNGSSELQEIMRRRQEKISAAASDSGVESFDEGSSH
UniProt Q12929: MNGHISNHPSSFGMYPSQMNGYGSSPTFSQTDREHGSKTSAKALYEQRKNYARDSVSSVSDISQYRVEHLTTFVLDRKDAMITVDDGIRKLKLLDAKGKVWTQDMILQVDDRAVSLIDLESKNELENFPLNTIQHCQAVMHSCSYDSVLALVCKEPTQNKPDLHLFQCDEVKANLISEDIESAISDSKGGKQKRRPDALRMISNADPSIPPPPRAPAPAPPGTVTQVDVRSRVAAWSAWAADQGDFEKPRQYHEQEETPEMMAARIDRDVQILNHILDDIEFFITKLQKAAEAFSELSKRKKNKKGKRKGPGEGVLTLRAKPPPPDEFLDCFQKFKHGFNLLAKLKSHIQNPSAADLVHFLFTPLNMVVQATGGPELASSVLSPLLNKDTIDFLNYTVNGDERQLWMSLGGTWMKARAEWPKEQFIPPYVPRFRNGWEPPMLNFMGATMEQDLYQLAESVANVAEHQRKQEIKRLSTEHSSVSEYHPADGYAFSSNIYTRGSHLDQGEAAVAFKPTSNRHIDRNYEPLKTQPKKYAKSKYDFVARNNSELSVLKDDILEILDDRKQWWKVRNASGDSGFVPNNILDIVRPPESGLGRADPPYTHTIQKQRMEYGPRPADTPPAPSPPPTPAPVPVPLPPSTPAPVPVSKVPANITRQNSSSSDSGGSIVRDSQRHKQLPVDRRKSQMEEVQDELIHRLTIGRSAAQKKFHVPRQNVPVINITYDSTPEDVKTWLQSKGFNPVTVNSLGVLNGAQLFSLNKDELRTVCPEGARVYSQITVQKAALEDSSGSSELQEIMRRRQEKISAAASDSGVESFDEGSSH

Key:
[1] = biological target: FAK WT (wild-type focal adhesion kinase re-expressed in FAK-/- SCC cells) (UniProt Q00944); experiment: co-IP; 1 mg SCC cell lysate (FAK WT, FAK K1001A/K1003A or FAK-/-; RIPA or NP40 buffer) with 2 ug antibody or 10 ul agarose-conjugated antibody at 4 C overnight; beads washed three times in lysis buffer and once in 0.6 M LiCl; western blot; for the LC3B IP FAK-/- cells with Eps8 or non-targeting shRNA
FAK K1001A/K1003A = FAK K1001A/K1003A (UniProt Q00944); experiment: as above
[2] = biological target: T1, FAK peptide b (amino acids 1029-1053) (UniProt Q00944); experiment: peptide or protein array; overlapping 25-mer FAK peptides spotted onto nitrocellulose, incubated with recombinant Eps8, washed, probed with anti-Eps8 antibody; alanine scan with one amino acid mutated at a time; both purified
T1 sequence (peptide): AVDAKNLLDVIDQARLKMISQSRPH

[3] = biological target: T2, FAK peptide a (amino acids 986-1010) (UniProt Q00944); experiment: as above
T2 sequence (peptide): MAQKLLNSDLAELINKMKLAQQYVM

binding [1] | binding (FAK K1001A/K1003A) | binding [2] | binding [3] | Substance
binds | binds |  |  | Eps8, 97-kDa isoform (from UniProt Q08509 1-821)
 |  | binds | binds | recombinant Eps8 (Abnova) (from UniProt Q12929 1-822)
